## Cleaved PARP in drug-treated melanoma cells

Values as published with doi:10.1371/journal.pone.0140310, rounded.

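Human melanoma cells were exposed to a pair of drugs for 72 h in 1,536-well plates and read by automated microscopy after fixing and staining. Each value is the cleaved-PARP-positive fraction of nuclei relative to DMSO-treated wells, in %, so that 100 equals the control and higher values mean more apoptosis. Concentrations were fixed for each drug; these are the higher of two levels. These are primary screening values without error estimates. Basal and induced levels differ widely between cell lines.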 Only some of the drugs and lines screened are listed, without regard to their results. A dash means that no value is listed here.

Compounds and concentrations:
tipifarnib, 50 nM: Cn1cncc1[C@@](N)(c1ccc(Cl)cc1)c1ccc2c(c1)c(-c1cccc(Cl)c1)cc(=O)n2C
docetaxel, 0.5 nM: CC(=O)O[C@@]12CO[C@@H]1C[C@H](O)[C@@]1(C)C(=O)[C@H](O)C3=C(C)[C@@H](OC(=O)[C@H](O)[C@@H](NC(=O)OC(C)(C)C)c4ccccc4)C[C@@](O)([C@@H](OC(=O)c4ccccc4)[C@H]21)C3(C)C
enzastaurin, 4000 nM: Cn1cc(C2=C(c3cn(C4CCN(Cc5ccccn5)CC4)c4ccccc34)C(=O)NC2=O)c2ccccc21
temozolomide, 10000 nM: Cn1nnc2c(C(N)=O)ncn2c1=O
lapatinib, 4000 nM: CS(=O)(=O)CCNCc1ccc(-c2ccc3ncnc(Nc4ccc(OCc5cccc(F)c5)c(Cl)c4)c3c2)o1
ENMD-2076, 200 nM: Cc1cc(Nc2cc(N3CCN(C)CC3)nc(/C=C/c3ccccc3)n2)n[nH]1
tanespimycin, 10 nM: C=CCNC1=C2C[C@@H](C)C[C@H](OC)[C@H](O)[C@@H](C)/C=C(\C)[C@H](OC(N)=O)[C@@H](OC)/C=C\C=C(/C)C(=O)NC(=CC1=O)C2=O
cisplatin, 8000 nM: N.N.[Cl][Pt][Cl]
KU-55933, 5000 nM: O=c1cc(-c2cccc3c2Sc2ccccc2S3)oc(N2CCOCC2)c1

| Pair | UACC-62 | RPMI-7951 | SK-MEL-28 | SK-MEL-30 | MeWo | COLO 800 | G-361 | WM1745 | IST-MEL1 | IPC-298 | A2058 | A375 | UACC-257 | WM3619 | LB2518-MEL |
|---|---|---|---|---|---|---|---|---|---|---|---|---|---|---|---|
| ENMD-2076 + enzastaurin | 284 | 711 | 216 | 135 | 195 | 213 | 118 | 763 | 78.3 | 57.9 | 209 | 208 | 375 | 83.9 | 91.8 |
| tanespimycin + cisplatin | 279 | 517 | 145 | 89.1 | 278 | 83.3 | 233 | 133 | 55.7 | 31.2 | 233 | 130 | 148 | 172 | 79.1 |
| tanespimycin + tipifarnib | 105 | 1070 | 147 | 139 | 471 | 402 | 445 | 124 | 227 | 126 | 484 | - | 150 | 156 | 180 |
| enzastaurin + tanespimycin | 357 | 933 | 192 | 128 | 136 | 68.7 | 60.5 | 423 | 163 | 109 | 372 | 155 | 70.8 | 235 | 152 |
| cisplatin + lapatinib | 127 | 98.2 | 61.0 | 79.4 | 136 | 52.3 | 52.0 | 101 | 111 | 71.0 | 96.4 | 151 | 228 | 112 | 199 |
| KU-55933 + cisplatin | 112 | 159 | 52.8 | 121 | 47.0 | 181 | 188 | - | 140 | 105 | 90.5 | 40.0 | 58.0 | 132 | 319 |
| cisplatin + temozolomide | 152 | 79.6 | 248 | 157 | 108 | 111 | 89.4 | 70.7 | 224 | 61.1 | 502 | 44.9 | 102 | 95.1 | 86.6 |
| docetaxel + enzastaurin | 338 | 1090 | 420 | 677 | 534 | 100 | 1460 | 358 | 129 | 985 | 1500 | 231 | 208 | 173 | - |
| KU-55933 + enzastaurin | 465 | 331 | 294 | 74.2 | 86.7 | 162 | 608 | - | 140 | 63.3 | 128 | 81.8 | 126 | 144 | 123 |
| tanespimycin + lapatinib | 298 | 1180 | 66.4 | 147 | 90.5 | 296 | 269 | 156 | 270 | 100 | 243 | 60.0 | 140 | 124 | 75.4 |
| docetaxel + tanespimycin | 223 | 224 | 657 | 472 | 1710 | 554 | 2210 | 199 | 294 | 768 | 2040 | 224 | 167 | 390 | 421 |
| ENMD-2076 + lapatinib | 577 | 199 | 167 | 270 | 109 | 260 | 124 | 159 | 355 | 146 | 204 | 69.7 | 37.3 | 147 | 103 |
| tipifarnib + lapatinib | 268 | 185 | 103 | 196 | 83.1 | 258 | 219 | 159 | 130 | 86.6 | 182 | - | 131 | 102 | 160 |
| tipifarnib + docetaxel | 220 | 320 | 452 | 775 | 2390 | 397 | 556 | 238 | 248 | 988 | 5440 | - | 58.3 | 263 | 116 |
| docetaxel + temozolomide | 271 | 169 | 273 | 1310 | 752 | 315 | 801 | 310 | 112 | 582 | 2280 | 67.1 | 228 | 166 | 308 |
| docetaxel + cisplatin | 378 | 775 | 582 | 418 | 777 | 72.4 | 794 | 260 | 370 | 769 | 1100 | 128 | 341 | 186 | 202 |
| docetaxel + KU-55933 | 530 | 190 | 967 | 438 | 895 | 127 | 907 | - | 123 | 623 | 5520 | 577 | 47.7 | 200 | 245 |
| ENMD-2076 + KU-55933 | 206 | 190 | 82.0 | 55.1 | 97.7 | 122 | 143 | - | 130 | 178 | 133 | 39.6 | 121 | 117 | 93.1 |
| KU-55933 + tanespimycin | 388 | 973 | 255 | 48.6 | 155 | 152 | 257 | - | 157 | 139 | 148 | 68.6 | 50.9 | 173 | 164 |
| tipifarnib + ENMD-2076 | 75.5 | 84.8 | 93.6 | 72.2 | 145 | 213 | 172 | 93.7 | 323 | 125 | 96.9 | - | 84.2 | 90.5 | 117 |
| cisplatin + ENMD-2076 | 75.3 | 159 | 75.4 | 106 | 80.9 | 65.3 | 98.6 | 94.1 | 141 | 240 | 133 | 333 | 414 | 118 | 76.6 |
| tanespimycin + temozolomide | 414 | 330 | 358 | 138 | 118 | 34.6 | 171 | 142 | 47.7 | 392 | 2660 | 138 | 37.3 | 192 | - |
| cisplatin + tipifarnib | 139 | 340 | 146 | 73.1 | 55.8 | 143 | 91.7 | 90.9 | 51.2 | 153 | 117 | - | 194 | 145 | 58.0 |
| enzastaurin + tipifarnib | 132 | 49.5 | 391 | 55.7 | 119 | 143 | 252 | 102 | 161 | 33.7 | 195 | - | 65.4 | 69.2 | 237 |
| enzastaurin + cisplatin | 51.9 | 58.2 | 122 | 134 | 77.0 | 89.8 | 96.1 | 102 | 144 | 64.0 | 90.8 | 94.3 | 103 | 86.9 | - |
| ENMD-2076 + tanespimycin | 261 | 314 | 88.2 | 116 | 369 | 156 | 214 | 184 | 159 | 191 | 284 | 131 | 90.7 | 154 | 83.1 |
| lapatinib + docetaxel | 339 | 245 | 210 | 295 | 444 | 145 | 1590 | 316 | 75.6 | 817 | 1580 | 276 | 138 | 134 | 200 |
| temozolomide + lapatinib | 259 | 386 | 150 | 190 | 238 | 88.1 | 232 | 114 | 98.2 | 57.7 | 404 | 48.9 | 75.5 | 110 | 236 |
| temozolomide + ENMD-2076 | 241 | 35.4 | 423 | 245 | 161 | 240 | 125 | 119 | 289 | 115 | 480 | 64.0 | 54.8 | 108 | 35.8 |
| ENMD-2076 + docetaxel | 322 | 76.0 | 703 | 199 | 791 | 260 | 281 | 251 | 889 | 558 | 1050 | 122 | 43.8 | 107 | 599 |
| KU-55933 + lapatinib | 266 | 452 | 222 | 68.6 | 107 | 307 | 159 | - | 229 | 400 | 118 | 70.9 | 59.1 | 129 | - |
| KU-55933 + tipifarnib | 42.8 | 180 | 174 | 74.4 | 58.1 | 92.2 | 116 | 111 | 66.7 | 49.0 | 168 | 93.8 | 14.2 | 120 | 90.8 |

For reference, 2 entries once more:

| Pair | UACC-62 | RPMI-7951 | SK-MEL-28 | SK-MEL-30 | MeWo | COLO 800 | G-361 | WM1745 | IST-MEL1 | IPC-298 | A2058 | A375 | UACC-257 | WM3619 | LB2518-MEL |
|---|---|---|---|---|---|---|---|---|---|---|---|---|---|---|---|
| docetaxel + enzastaurin | 338 | 1090 | 420 | 677 | 534 | 100 | 1460 | 358 | 129 | 985 | 1500 | 231 | 208 | 173 | - |
| enzastaurin + cisplatin | 51.9 | 58.2 | 122 | 134 | 77.0 | 89.8 | 96.1 | 102 | 144 | 64.0 | 90.8 | 94.3 | 103 | 86.9 | - |